Laboratory results published in patent US20140038203A1, “METHODS FOR DETECTING OR PREDICTING KIDNEY DISEASE” (MUSC FOUNDATION FOR RESEARCH DEVELOPMENT, priority 2012, published 2014).

Assay: RRT study: LC-MS/MS urinary proteomics, AKI after cardiac surgery, RRT vs No RRT
Set-up: species or system human
Conditions: patients who did vs did not require RRT/dialysis; for Up or Down: direction of urinary abundance; for Mean Fold Change: read with the Up or Down column

Molecule | Up or Down | Mean Fold Change
Cadherin-related family member 2 (protein, UniProt Q9BYE9 21-1310, looked up) Cadherin-related family …: NVAPKFLANMTSVILPEDLPVGAQAFWLVAEDQDNDPLTYGMSGPNAYFFAVTPKTGEVKLASALDYETLYTFKVTISVSDPYIQVQREMLVIVEDRNDNAPVFQNTAFSTSINETLPVGSVVFSVLAVDKDMGSAGMVVYSIEKVIPSTGDSEHLFRILANGSIVLNGSLSYNNKSAFYQLELKACDLGGMYHNTFTIQCSLPVFLSISVVDQPDLDPQFVREFYSASVAEDAAKGTSVLTVEAVDGDKGINDPVIYSISYSTRPGWFDIGADGVIRVNGSLDREQLLEADEEVQLQVTATETHLNIYGQEAKVSIWVTVRVMDVNDHKPEFYNCSLPACTFTPEEAQVNFTGYVDEHASPRIPIDDLTMVVYDPDKGSNGTFLLSLGGPDAEAFSVSPERAVGSASVQVLVRVSALVDYERQTAMAVQVVATDSVSQNFSVAMVTIHLRDINDHRPTFPQSLYVLTVPEHSATGSVVTDSIHATDPDTGAWGQITYSLLPGNGADLFQVDPVSGTVTVRNGELLDRESQAVYYLTLQATDGGNLSSSTTLQIHLLDINDNAPVVSGSYNIFVQEEEGNVSVTIQAHDNDEPGTNNSRLLFNLLPGPYSHNFSLDPDTGLLRNLGPLDREAIDPALEGRIVLTVLVSDCGEPVLGTKVNVTITVEDINDNLPIFNQSSYNFTVKEEDPGVLVGVVKAWDADQTEANNRISFSLSGSGANYFMIRGLVLGAGWAEGYLRLPPDVSLDYETQPVFNLTVSAENPDPQGGETIVDVCVNVKDVNDNPPTLDVASLRGIRVAENGSQHGQVAVVVASDVDTSAQLEIQLVNILCTKAGVDVGSLCWGWFSVAANGSVYINQSKAIDYEACDLVTLVVRACDLATDPGFQAYSNNGSLLITIEDVNDNAPYFLPENKTFVIIPELVLPNREVASVRARDDDSGNNGVILFSILRVDFISKDGATIPFQGVFSIFTSSEADVFAGSIQPVTSLDSTLQGTYQVTVQARDRPSLGPFLEATTTLNLFTVDQSYRSRLQFSTPKEEVGANRQAINAALTQATRTTVYIVDIQDIDSAARARPHSYLDAYFVFPNGSALTLDELSVMIRNDQDSLTQLLQLGLVVLGSQESQESDLSKQLISVIIGLGVALLLVLVIMTMAFVCVRKSYNRKLQAMKAAKEARKTAAGVMPSAPAIPGTNMYNTERANPMLNLPNKDLGLEYLSPSNDLDSVSVNSLDDNSVDVDKNSQEIKEHRPPHTPPEPDPEPLSVVLLGRQAGASGQLEGPSYTNAGLDTTDL | Up | 1.057
Heparin cofactor 2 (protein, UniProt P05546 20-499, looked up) Heparin cofactor 2: GSKGPLDQLEKGGETAQSADPQWEQLNNKNLSMPLLPADFHKENTVTNDWIPEGEEDDDYLDLEKIFSEDDDYIDIVDSLSVSPTDSDVSAGNILQLFHGKSRIQRLNILNAKFAFNLYRVLKDQVNTFDNIFIAPVGISTAMGMISLGLKGETHEQVHSILHFKDFVNASSKYEITTIHNLFRKLTHRLFRRNFGYTLRSVNDLYIQKQFPILLDFKTKVREYYFAEAQIADFSDPAFISKTNNHIMKLTKGLIKDALENIDPATQMMILNCIYFKGSWVNKFPVEMTHNHNFRLNEREVVKVSMMQTKGNFLAANDQELDCDILQLEYVGGISMLIVVPHKMSGMKTLEAQLTPRVVERWQKSMTNRTREVLLPKFKLEKNYNLVESLKLMGIRMLFDKNGNMAGISDQRIAIDLFKHQGTITVNEEGTQATTVTTVGFMPLSTQVRFTVDRPFLFLIYEHRTSCLLFMGRVANPSRS | Up | –
Signal-regulatory protein beta-1 (protein, UniProt O00241 30-398, looked up) Signal-regulatory protein …: EDELQVIQPEKSVSVAAGESATLRCAMTSLIPVGPIMWFRGAGAGRELIYNQKEGHFPRVTTVSELTKRNNLDFSISISNITPADAGTYYCVKFRKGSPDDVEFKSGAGTELSVRAKPSAPVVSGPAVRATPEHTVSFTCESHGFSPRDITLKWFKNGNELSDFQTNVDPAGDSVSYSIHSTARVVLTRGDVHSQVICEIAHITLQGDPLRGTANLSEAIRVPPTLEVTQQPMRAENQANVTCQVSNFYPRGLQLTWLENGNVSRTETASTLIENKDGTYNWMSWLLVNTCAHRDDVVLTCQVEHDGQQAVSKSYALEISAHQKEHGSDITHEAALAPTAPLLVALLLGPKLLLVVGVSAIYICWKQKA | Up | 1.442
Aminoacylase-1 (protein, UniProt Q03154 1-408, looked up) Aminoacylase-1: MTSKGPEEEHPSVTLFRQYLRIRTVQPKPDYGAAVAFFEETARQLGLGCQKVEVAPGYVVTVLTWPGTNPTLSSILLNSHTDVVPVFKEHWSHDPFEAFKDSEGYIYARGAQDMKCVSIQYLEAVRRLKVEGHRFPRTIHMTFVPDEEVGGHQGMELFVQRPEFHALRAGFALDEGIANPTDAFTVFYSERSPWWVRVTSTGRPGHASRFMEDTAAEKLHKVVNSILAFREKEWQRLQSNPHLKEGSVTSVNLTKLEGGVAYNVIPATMSASFDFRVAPDVDFKAFEEQLQSWCQAAGEGVTLEFAQKWMHPQVTPTDDSNPWWAAFSRVCKDMNLTLEPEIMPAATDNRYIRAVGVPALGFSPMNRTPVLLHDHDERLHEAVFLRGVDIYTRLLPALASVPALPSDS | Up | 1.417
Cadherin-11 (protein, UniProt P55287 54-796, looked up) Cadherin-11: GWVWNQFFVIEEYTGPDPVLVGRLHSDIDSGDGNIKYILSGEGAGTIFVIDDKSGNIHATKTLDREERAQYTLMAQAVDRDTNRPLEPPSEFIVKVQDINDNPPEFLHETYHANVPERSNVGTSVIQVTASDADDPTYGNSAKLVYSILEGQPYFSVEAQTGIIRTALPNMDREAKEEYHVVIQAKDMGGHMGGLSGTTKVTITLTDVNDNPPKFPQSVYQMSVSEAAVPGEEVGRVKAKDPDIGENGLVTYNIVDGDGMESFEITTDYETQEGVIKLKKPVDFETKRAYSLKVEAANVHIDPKFISNGPFKDTVTVKISVEDADEPPMFLAPSYIHEVQENAAAGTVVGRVHAKDPDAANSPIRYSIDRHTDLDRFFTINPEDGFIKTTKPLDREETAWLNITVFAAEIHNRHQEAKVPVAIRVLDVNDNAPKFAAPYEGFICESDQTKPLSNQPIVTISADDKDDTANGPRFIFSLPPEIIHNPNFTVRDNRDNTAGVYARRGGFSRQKQDLYLLPIVISDGGIPPMSSTNTLTIKVCGCDVNGALLSCNAEAYILNAGLSTGALIAILACIVILLVIVVLFVTLRRQKKEPLIVFEEEDVRENIITYDDEGGGEEDTEAFDIATLQNPDGINGFIPRKDIKPEYQYMPRPGLRPAPNSVDVDDFINTRIQEADNDPTAPPYDSIQIYGYEGRGSVAGSLSSLESATTDSDLDYDYLQNWGPRFKKLADLYGSKDTFDDDS | Up | 4.167
Ubiquitin carboxyl-terminal hydrolase 8 (protein, UniProt P40818 1-1118, looked up) Ubiquitin carboxyl-terminal …: MPAVASVPKELYLSSSLKDLNKKTEVKPEKISTKSYVHSALKIFKTAEECRLDRDEERAYVLYMKYVTVYNLIKKRPDFKQQQDYFHSILGPGNIKKAVEEAERLSESLKLRYEEAEVRKKLEEKDRQEEAQRLQQKRQETGREDGGTLAKGSLENVLDSKDKTQKSNGEKNEKCETKEKGAITAKELYTMMTDKNISLIIMDARRMQDYQDSCILHSLSVPEEAISPGVTASWIEAHLPDDSKDTWKKRGNVEYVVLLDWFSSAKDLQIGTTLRSLKDALFKWESKTVLRNEPLVLEGGYENWLLCYPQYTTNAKVTPPPRRQNEEVSISLDFTYPSLEESIPSKPAAQTPPASIEVDENIELISGQNERMGPLNISTPVEPVAASKSDVSPIIQPVPSIKNVPQIDRTKKPAVKLPEEHRIKSESTNHEQQSPQSGKVIPDRSTKPVVFSPTLMLTDEEKARIHAETALLMEKNKQEKELRERQQEEQKEKLRKEEQEQKAKKKQEAEENEITEKQQKAKEEMEKKESEQAKKEDKETSAKRGKEITGVKRQSKSEHETSDAKKSVEDRGKRCPTPEIQKKSTGDVPHTSVTGDSGSGKPFKIKGQPESGILRTGTFREDTDDTERNKAQREPLTRARSEEMGRIVPGLPSGWAKFLDPITGTFRYYHSPTNTVHMYPPEMAPSSAPPSTPPTHKAKPQIPAERDREPSKLKRSYSSPDITQAIQEEEKRKPTVTPTVNRENKPTCYPKAEISRLSASQIRNLNPVFGGSGPALTGLRNLGNTCYMNSILQCLCNAPHLADYFNRNCYQDDINRSNLLGHKGEVAEEFGIIMKALWTGQYRYISPKDFKITIGKINDQFAGYSQQDSQELLLFLMDGLHEDLNKADNRKRYKEENNDHLDDFKAAEHAWQKHKQLNESIIVALFQGQFKSTVQCLTCHKKSRTFEAFMYLSLPLASTSKCTLQDCLRLFSKEEKLTDNNRFYCSHCRARRDSLKKIEIWKLPPVLLVHLKRFSYDGRWKQKLQTSVDFPLENLDLSQYVIGPKNNLKKYNLFSVSNHYGGLDGGHYTAYCKNAARQRWFKFDDHEVSDISVSSVKSSAAYILFYTSLGPRVTDVAT | Up | –
Beta-microseminoprotein (protein, UniProt P08118 21-114, looked up) Beta-microseminoprotein: SCYFIPNEGVPGDSTRKCMDLKGNKHPINSEWQTDNCETCTCYETEISCCTLVSTPVGYDKDNCQRIFKKEDCKYIVVEKKDPKKTCSVSEWII | Up | 1.789
Cystatin-S (protein, UniProt P01036 21-141, looked up) Cystatin-S: SSSKEENRIIPGGIYDADLNDEWVQRALHFAISEYNKATEDEYYRRPLQVLRAREQTFGGVNYFFDVEVGRTICTKSQPNLDTCAFHEQPELQKKQLCSFEIYEVPWEDRMSLVNSRCQEA | Up | –
Glutaminyl-peptide cyclotransferase (protein, UniProt Q16769 29-361, looked up) Glutaminyl-peptide …: VSPSASAWPEEKNYHQPAILNSSALRQIAEGTSISEMWQNDLQPLLIERYPGSPGSYAARQHIMQRIQRLQADWVLEIDTFLSQTPYGYRSFSNIISTLNPTAKRHLVLACHYDSKYFSHWNNRVFVGATDSAVPCAMMLELARALDKKLLSLKTVSDSKPDLSLQLIFFDGEEAFLHWSPQDSLYGSRHLAAKMASTPHPPGARGTSQLHGMDLLVLLDLIGAPNPTFPNFFPNSARWFERLQAIEHELHELGLLKDHSLEGRYFQNYSYGGVIQDDHIPFLRRGVPVLHLIPSPFPEVWHTMDDNEENLDESTIDNLNKILQVFVLEYLHL | Up | –
Complement C2 (protein, UniProt P06681 21-752, looked up) Complement C2: APSCPQNVNISGGTFTLSHGWAPGSLLTYSCPQGLYPSPASRLCKSSGQWQTPGATRSLSKAVCKPVRCPAPVSFENGIYTPRLGSYPVGGNVSFECEDGFILRGSPVRQCRPNGMWDGETAVCDNGAGHCPNPGISLGAVRTGFRFGHGDKVRYRCSSNLVLTGSSERECQGNGVWSGTEPICRQPYSYDFPEDVAPALGTSFSHMLGATNPTQKTKESLGRKIQIQRSGHLNLYLLLDCSQSVSENDFLIFKESASLMVDRIFSFEINVSVAIITFASEPKVLMSVLNDNSRDMTEVISSLENANYKDHENGTGTNTYAALNSVYLMMNNQMRLLGMETMAWQEIRHAIILLTDGKSNMGGSPKTAVDHIREILNINQKRNDYLDIYAIGVGKLDVDWRELNELGSKKDGERHAFILQDTKALHQVFEHMLDVSKLTDTICGVGNMSANASDQERTPWHVTIKPKSQETCRGALISDQWVLTAAHCFRDGNDHSLWRVNVGDPKSQWGKEFLIEKAVISPGFDVFAKKNQGILEFYGDDIALLKLAQKVKMSTHARPICLPCTMEANLALRRPQGSTCRDHENELLNKQSVPAHFVALNGSKLNINLKMGVEWTSCAEVVSQEKTMFPNLTDVREVVTDQFLCSGTQEDESPCKGESGGAVFLERRFRFFQVGLVSWGLYNPCLGSADKNSRKRAPRSKVPPPRDFHINLFRMQPWLRQHLGDVLNFLPL | Up | –
